In paper PMC5709735, “Real‐time detection of condensin‐driven DNA compaction reveals a multistep binding mechanism” (The EMBO Journal, 2017):
These are yes or no findings as the source states them, for the method shown. Some binding calls cover weakened binding; strength is not graded here.

What was measured:
[1] = target: T1, Smc4 Q302L (S. cerevisiae) (UniProt Q12267); assay: tandem affinity chromatography + SEC; subunits co-overexpressed in budding yeast; complexes purified from interphase cell extracts by the His12 tag on Brn1 and the triple StrepII tag on Smc4, followed by a gel filtration step
T1 sequence: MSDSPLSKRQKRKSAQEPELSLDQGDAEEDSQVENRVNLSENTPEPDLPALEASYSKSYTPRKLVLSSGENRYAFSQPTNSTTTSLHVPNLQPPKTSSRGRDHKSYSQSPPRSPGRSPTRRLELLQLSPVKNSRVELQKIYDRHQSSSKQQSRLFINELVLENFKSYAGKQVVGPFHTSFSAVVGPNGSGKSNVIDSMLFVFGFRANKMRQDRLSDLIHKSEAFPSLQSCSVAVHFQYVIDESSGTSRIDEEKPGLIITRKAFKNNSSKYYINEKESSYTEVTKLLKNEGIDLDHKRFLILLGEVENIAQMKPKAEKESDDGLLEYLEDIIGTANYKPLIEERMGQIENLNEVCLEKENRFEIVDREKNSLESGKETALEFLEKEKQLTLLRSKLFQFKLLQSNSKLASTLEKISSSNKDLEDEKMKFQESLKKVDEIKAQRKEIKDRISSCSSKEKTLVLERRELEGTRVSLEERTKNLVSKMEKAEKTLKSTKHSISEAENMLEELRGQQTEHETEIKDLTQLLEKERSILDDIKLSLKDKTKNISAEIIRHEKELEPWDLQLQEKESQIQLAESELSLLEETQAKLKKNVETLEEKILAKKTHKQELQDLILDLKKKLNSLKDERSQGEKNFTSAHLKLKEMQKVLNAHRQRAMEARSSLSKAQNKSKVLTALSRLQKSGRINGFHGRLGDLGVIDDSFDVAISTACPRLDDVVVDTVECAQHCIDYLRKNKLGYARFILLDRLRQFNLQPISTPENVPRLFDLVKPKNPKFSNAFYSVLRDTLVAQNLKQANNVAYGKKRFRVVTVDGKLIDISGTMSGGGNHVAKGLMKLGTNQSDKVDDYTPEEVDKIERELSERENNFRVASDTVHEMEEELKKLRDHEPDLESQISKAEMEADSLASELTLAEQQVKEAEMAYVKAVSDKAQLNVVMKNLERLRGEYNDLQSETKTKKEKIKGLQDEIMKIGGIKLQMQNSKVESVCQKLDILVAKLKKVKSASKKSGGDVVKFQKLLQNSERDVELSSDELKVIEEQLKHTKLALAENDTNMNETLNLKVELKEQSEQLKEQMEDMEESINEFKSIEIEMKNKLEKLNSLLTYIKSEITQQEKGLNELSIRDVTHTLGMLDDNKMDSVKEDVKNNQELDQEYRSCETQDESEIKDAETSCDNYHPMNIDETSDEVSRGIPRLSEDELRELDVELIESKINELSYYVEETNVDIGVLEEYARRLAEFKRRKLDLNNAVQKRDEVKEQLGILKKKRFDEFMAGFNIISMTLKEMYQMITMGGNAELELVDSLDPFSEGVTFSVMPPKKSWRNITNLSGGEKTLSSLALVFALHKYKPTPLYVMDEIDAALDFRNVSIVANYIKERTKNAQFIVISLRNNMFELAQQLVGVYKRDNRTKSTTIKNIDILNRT

Smc4 (S. cerevisiae) = target: T2, Smc4 (S. cerevisiae) (UniProt Q12267); assay: as above
T2 sequence: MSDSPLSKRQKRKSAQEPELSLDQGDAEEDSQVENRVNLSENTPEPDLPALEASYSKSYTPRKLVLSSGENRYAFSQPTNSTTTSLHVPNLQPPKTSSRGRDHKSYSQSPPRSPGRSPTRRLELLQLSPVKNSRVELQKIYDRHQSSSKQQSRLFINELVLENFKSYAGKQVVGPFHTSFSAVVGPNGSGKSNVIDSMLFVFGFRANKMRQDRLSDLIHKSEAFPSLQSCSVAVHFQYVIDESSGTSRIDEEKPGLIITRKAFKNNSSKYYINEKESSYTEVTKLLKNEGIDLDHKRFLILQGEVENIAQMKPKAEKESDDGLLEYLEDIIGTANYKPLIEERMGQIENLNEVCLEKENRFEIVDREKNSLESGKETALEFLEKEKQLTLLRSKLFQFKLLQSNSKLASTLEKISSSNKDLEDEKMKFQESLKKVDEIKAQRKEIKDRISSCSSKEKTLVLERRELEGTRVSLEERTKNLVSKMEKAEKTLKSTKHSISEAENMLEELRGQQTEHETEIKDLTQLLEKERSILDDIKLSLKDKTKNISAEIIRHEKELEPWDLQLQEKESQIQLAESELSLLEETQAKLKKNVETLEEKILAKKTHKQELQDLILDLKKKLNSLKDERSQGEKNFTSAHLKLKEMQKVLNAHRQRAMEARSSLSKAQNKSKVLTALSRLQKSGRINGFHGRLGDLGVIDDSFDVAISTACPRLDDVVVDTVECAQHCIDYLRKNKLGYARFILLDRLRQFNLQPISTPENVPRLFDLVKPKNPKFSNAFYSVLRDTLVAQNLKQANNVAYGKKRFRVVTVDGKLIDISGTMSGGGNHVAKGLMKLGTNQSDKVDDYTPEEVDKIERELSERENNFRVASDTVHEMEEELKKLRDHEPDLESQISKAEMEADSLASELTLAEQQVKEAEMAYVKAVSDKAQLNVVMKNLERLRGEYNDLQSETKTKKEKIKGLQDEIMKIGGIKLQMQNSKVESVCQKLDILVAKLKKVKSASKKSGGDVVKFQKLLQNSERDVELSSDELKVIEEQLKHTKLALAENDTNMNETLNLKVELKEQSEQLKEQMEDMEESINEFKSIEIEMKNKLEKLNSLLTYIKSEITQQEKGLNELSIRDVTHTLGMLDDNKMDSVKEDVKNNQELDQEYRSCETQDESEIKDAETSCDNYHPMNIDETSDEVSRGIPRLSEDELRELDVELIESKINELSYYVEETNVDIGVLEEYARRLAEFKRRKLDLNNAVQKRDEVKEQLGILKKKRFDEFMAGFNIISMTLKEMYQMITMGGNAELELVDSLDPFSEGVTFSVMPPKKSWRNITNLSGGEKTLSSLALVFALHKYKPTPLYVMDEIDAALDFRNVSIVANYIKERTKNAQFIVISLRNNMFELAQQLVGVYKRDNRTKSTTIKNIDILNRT

binding [1]: binds
binding (Smc4 (S. cerevisiae)): binds
B1: Ycs4 (protein, UniProt Q06156 1-1176)
chain: MSGFSLSEYLTKFQTTDRESYPRLQDPSRELNVIIDQLAVSPEQIDASPDSLEALIDLCHDFPHLTPKLQTQLSYLISSSLSNLSKDIKANLSSNVNFTEIGGLIPQWKRHLEEYGYLIQVLLTFLQDELHKVSSQSTNLNRSAKNSKNDSANVELFKRDCNQMENLLESITKLLEINLSKIFQTTPEKDLFIGLFTRPLFVLLEIEPVTKVSSLKMFIQRILAMCVKNHGQSSSIQSSLMTNLTYFLHLSVFNAELLKLLNDEYNYPQLTEDILKEISTRVFNAKDTTGPKAISNFLIKLSELSPGIMLRQMNLVITLLNNSSITLRCSVVEACGNIVAELAQDPQTMEHYKQQIAVLIELLEERFQDSNPYVRTKAIQGCSKICDLSSKFNKSKAKFTSLAVRSLQDRSSLVRRNSVKLLSKLLLKHPFKAIHGSQLRLSEWEEYLKGSESQLNSTLKKVESQETLNDTIERSLIEEEVEQDEGQCRTELEGSFNKSAELSRIENEVENINATNTSVLMKLKLMIVYYKDAISFIKEIHKSIELISNLLFSKNRNEVLESMDFLVLADAFDIELSEFGIKKMLHLVWMKGTNDEGTSISVHLIECYKQLFLTAPDSCNMQEKAAHIAKNLINLSIGASIADLASLEQLLGMMYEQKLIDQHVINILWAIYNSASKASMQKEQNVNNRDSEKGFSKEQIHGSIIILGMLSLADNEIALKGLESLLNIGLGAVGLKDLTLCRYSCLALERMVPKRSTIITKAINQELEDVAVKKLYAIIINYTKDNEYYPMCEQALSALFTISSKPDILATDLIREKTMMTFGKPEEEDSILSLEQSSRVVSLSQLLFIVGQVAIKTLVYLEKCEAEFKKRKIEAETRNGKVKNQGADVTNTTQDNGGDKELEMIGGTNEDDFTDAIQFVKENELLFGEKSILGKFCPIVEEIVSNSSRFSDPMLQRTATLCLEKLMCLSSKYCEKSLPLLITVMEKSPDPTIRSNAVLGLGDMAVCFNNLVDENTDYLYRRLHDENLMVQRTCLMTVTFLILAGQVKVKGQLGEMAKCLDNPDQGISDMCRLFFTELASKDNAIYNGFIDIFSNLSSDDLLGKESFKKIIKFLLTFIDKERHQKQLNEKLVGRLRKCETQKQWDDIAFVLNNLPYKNEDVTALLEQGFKVVSAKE
